Reference: PubChem BioAssay AID651640 (Broad Institute, 2012)
In all, about 350,000 compounds went through this assay and about 6,000 (1.7%) were called active. The inconclusive results got no clear call from the source; some entries with a clear call stand among them for comparison. Cut-off read from the data, not from the text of the source: active = CPE inhibition above about 20% (passing the limit was not always enough); inconclusive = no clear call, values can overlap the other calls; tested in BHK-21 cells.

Assay: protection of cells from dengue 2 killing – plate reader, single concentration, primary screen (AID 651640);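 note: 0% = median of neutral control wells and 100% = median of positive control wells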
Conditions: DENV2-infected cells, cytopathic effect rescue, at 9.99 µM, stronger effect = higher value
In the case of `Cc1ccsc1C(=O)NCC(=O)OCc1ccccc1`, the CPE inhibition was inconclusive: 25.6%.
With `O=C(Nc1cc(Cl)ccc1N1CCOCC1)C1CC1` the CPE inhibition was inconclusive: 25.1%.
For `CS(=O)(=O)N1[C@@H]2Cn3c(cccc3=O)[C@H]1[C@@H](C(=O)NCc1ccccc1)[C@@H]2CO`, the CPE inhibition was inactive: 8.56%.
In the case of `COC(=O)c1cc(S(=O)(=O)N2CCCCC2)ccc1N1CCOCC1`, the CPE inhibition was inconclusive: 22.1%.
For `CCCS(=O)(=O)NC(=O)C1(C)CCN(C(=O)c2ccc(C(F)(F)F)cc2)C1` (stereo not drawn), the CPE inhibition was inconclusive: 28.6%.
In the case of `C[C@@H]1CN([C@H](C)CO)C(=O)c2cccc(NS(C)(=O)=O)c2O[C@H]1CN(C)C`, the CPE inhibition was inactive: 8.55%.
In the case of `O=C(c1cc2c(c(-c3cccc(Br)c3)n1)[C@H](CCO)NC2)N1CCCCC1`, the CPE inhibition was active: 34.5%.
With `CSCCC(NC(=O)c1ccco1)C(=O)NC1CCCCCC1` (stereo not drawn) the CPE inhibition was inconclusive: 37.2%.
In the case of `Clc1cccc(CNc2ccn3nc(-c4cccc(OCc5ccccc5)c4)cc3n2)c1`, the CPE inhibition was inconclusive: 24.7%.
With `O=C(O)Cc1ccc(NC(=O)c2ccc(NC(=O)C3CC3)cc2)cc1` the CPE inhibition was active: 81.9%.
For `COc1cccc(NC(=O)CN(C)C(=O)Cn2c(=O)oc3ccccc32)c1`, the CPE inhibition was inconclusive: 27.2%.
For `Cc1c(C(=O)NCCC#N)sc(=O)n1Cc1ccc(F)cc1`, the CPE inhibition was inconclusive: 25.4%.
For `CCOc1ccc(C2NC(=O)C(C#N)=C(S)N2c2cccc(C)c2)cc1OC` (stereo not drawn), the CPE inhibition was inconclusive: 25.9%.
With `CCc1cc(=O)oc2c(C)c(OCC(=O)N3CC[C@@]4(O)CCCC[C@H]4C3)ccc12` the CPE inhibition was inconclusive: 37.8%.
For `CC(=O)Nc1ccc(-c2ccnc3c2CC(C)(C(=O)Nc2ccc4c(c2)OCO4)O3)cc1` (stereo not drawn), the CPE inhibition was inactive: 17.5%.
In the case of `COc1ccc(C#Cc2cnc3c(c2)C(=O)N([C@H](C)CO)C[C@H](C)[C@H](CN(C)CC2CCCC2)O3)cc1`, the CPE inhibition was active: 40.5%.
In the case of `CNC(=O)C[C@@H]1CC[C@@H]2[C@H](COc3ccc(NC(=O)Nc4ccccc4OC)cc3C(=O)N2C)O1`, the CPE inhibition was inactive: 7.7%.
For `Cc1cc(C)c(O)c(C2(O)C(=O)c3ccccc3C2=O)c1`, the CPE inhibition was inconclusive: 35.9%.
With `O=C(Nc1nnc(Cc2ccccc2F)s1)c1ccccc1Cl` the CPE inhibition was active: 78%.
For `Cc1ccc(N2CC(C(=O)Nc3ccc(S(=O)(=O)Nc4nccc(C)n4)cc3)CC2=O)cc1` (stereo not drawn), the CPE inhibition was inconclusive: 25.2%.
In the case of `CC(c1n[nH]c(=S)n1-c1ccc(F)cc1)N1CCCCC1` (stereo not drawn), the CPE inhibition was inconclusive: 29.2%.
In the case of `C[C@@H]1CN([C@H](C)CO)C(=O)Cc2cc(NC(=O)CCN3CCOCC3)ccc2O[C@@H]1CN(C)C`, the CPE inhibition was inactive: 2.37%.
With `CCc1noc(C)c1C(=O)Nc1nc(-c2ccc(OC)cc2)cs1` the CPE inhibition was inconclusive: 24.5%.
